# Data reported in PubChem BioAssay AID493014 (National Center for Advancing Translational Sciences (NCATS), 2011).
# In all, about 340,000 compounds went through this assay and about 170 (0.05%) were called active. Inconclusive means that the source gave no clear call. Such entries were picked first, then a sample of the others. Calls follow the shape of the dose curve; as a rule, active = well fitted inhibition curve with a large enough effect in the signal ratio, with a control signal flat (not every such curve was filed as active); inconclusive = small, poorly fitted or top-dose-only effect, or effect the other way, or a change in a side signal; inactive = flat fitted curve, though single readings scatter; the % refers to the signal ratio. Potencies beside an inconclusive call are fits to weak or partial responses and may not hold up.
# Assay: qHTS Assay to Find Inhibitors of Chronic Active B-Cell Receptor Signaling;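 as to activity change, negative = inhibition: plate controls were basal doxycycline-induced cells for no effect and cells given 10 µM MG132 for full effect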
# Conditions: ABC-DLBCL IkBa-CBG/CBR reporter, luminescence ratio (green luciferase fused to IkBa over red control in TMD8 lymphoma cells), 4 h; activity change, negative = inhibition: at 46.1 µM (top of the series)
# Method in brief: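 TMD8 human ABC-DLBCL cells with doxycycline-inducible IκBα–green luciferase fusion and unfused red luciferase, in 0.5% FBS medium; compounds up to 46 uM, 4 h at 37C. Green/red luminescence ratio, filter-overlap corrected, fitted to concentration-response curves.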
# Potency is read from the fitted curve at half-maximal effect.
SMILES,"activity change, negative = inhibition",Potency
CCOC(=O)c1c(N)n[nH]c1-c1ccccc1,inconclusive: -19%,
C/C(=N\Nc1nc(Cl)c(Cl)cc1Cl)c1ccc(S(=O)(=O)NCc2ccco2)cc1,inconclusive: -20.4%,
NS(=O)(=O)c1ccc(CCNC(=O)Cc2cccs2)cc1,inactive,
CCc1cc(C(=O)c2ccc(C)cc2)c(NC(=O)CCl)s1,inconclusive: -0.805%,
Cc1ccc(NC(=O)c2cccs2)cc1NC(=O)c1ccccc1Cl,,"inconclusive: 6.31 µM [falling, partial curve]"
COc1ccc(-c2cc3ccc(O)cc3oc2=O)cc1OC,,"inconclusive: 7.08 µM [falling, partial curve]"
Cc1ccc(O)c(C(=O)c2cnc3c(c2)CN(C)C(=O)N3)c1,,"inconclusive: 2.59 µM [falling, full curve, poor fit]"
O=C(CCc1ccccc1)NNC(=O)c1cc(Cl)ccc1O,,"inconclusive: 25.1 µM [falling, single point]"
O=C(CCN1C(=O)c2ccccc2C1=O)NC(=S)Nc1ccccc1,,"inconclusive: 2.06 µM [falling, full curve, poor fit]"
CCCCN(C(=O)c1ccc(S(=O)(=O)N2CCCC2)cc1)C1CCS(=O)(=O)C1 (stereo not given),inactive,
COc1cccc(NC(=O)Nc2ccccc2SC)c1,,"inconclusive: 11.2 µM [falling, partial curve]"
O=C(CSc1nc2ccsc2c(=O)n1-c1ccc(Br)cc1)NCc1ccccc1,inactive,
C=CCC[C@H](Cc1ccc(F)cc1)C(=O)OC[C@@H](NC(=O)[C@@H](CC=C)CC(=O)N(CCO)Cc1ccccc1)C(C)(C)C,inconclusive: -0.0956%,
CC(OC(=O)CN1C(=O)NC2(CCCC2)C1=O)C(=O)Nc1cccc(Cl)c1Cl (stereo not given),,"inconclusive: 0.461 µM [falling, full curve]"
CC(=NC1CC1)c1c(-c2ccccc2)[nH]n(-c2nc3ccccc3s2)c1=O,inconclusive: 2.66%,
CCC1CCc2c(sc(NC(C)=O)c2C#N)C1 (stereo not given),inconclusive: -0.576%,
Cc1cccc(C)c1NC(=O)c1ccc2c(c1)CCN2S(C)(=O)=O,inconclusive: 0.323%,
O=C(CSc1nnc(CNc2ccc(Cl)cc2)n1Cc1ccccc1)NCc1ccco1,inconclusive: -2.7%,
CCCCOc1ccc(-c2cnc3ccccc3n2)cc1,,"inconclusive: 0.461 µM [rising, full curve, poor fit]"
O=[N+]([O-])c1ccccc1/C=C/CN1CCCCC1CO (stereo not given),inactive,
COC(=O)c1ccc(NC(=O)C[n+]2ccccc2C)cc1,,"inconclusive: 11.2 µM [falling, partial curve]"
O=C(COC(=O)c1c(Cl)ccc(Cl)c1Cl)NC(=O)NCc1ccccc1,inconclusive: -17.9%,
O=C(Nc1ccc2nc(-c3cccs3)c(-c3cccs3)nc2c1)N1CCOCC1,inconclusive: 3.58%,
CC[C@@]12C(=O)N(c3cccc(F)c3)C(=O)N1[C@H](c1cccc(C)c1)[C@@H]1C(=O)N(Cc3ccccc3)C(=O)[C@@H]12,inconclusive: -8.93%,
COc1ccc([N+](=O)[O-])cc1NC(=O)Cc1ccccc1Cl,inactive,
N#Cc1nc(COc2ccc(Cl)cc2Cl)oc1N1CCN(c2ccccc2)CC1,inconclusive: 10.7%,

SMILES,"activity change, negative = inhibition",Potency
CCC(C)c1ccc(NC(=S)NC(C)C2CCCO2)cc1 (stereo not given),inactive,
CCCC(=O)Nc1ccccc1NC(=O)c1cc(OC)c(OC)c(OC)c1,inconclusive: -18.5%,
COc1ccccc1NC(=O)c1ccccc1Nc1ccccc1,inactive,
CCC(NC(C)C)C(O)c1ccc(O)c2[nH]c(=O)ccc12 (stereo not given),inactive,
COc1ccc(-c2nc(C#N)c(NCc3ccco3)o2)cc1,inactive,
COc1cc(OC)c(NC(=O)c2ccoc2C)cc1Cl,inconclusive: 11.4%,
COc1cc2nc(CN3CCN(S(=O)(=O)c4ccc(C)c(C)c4)CC3)[nH]c(=O)c2cc1OC,inconclusive: 16.8%,
CCCC(=O)N(C1CC(C)C(C#N)(C#N)C1(C#N)C#N)N(C)C (stereo not given),,"inconclusive: 12.6 µM [rising, single point]"
c1ccc(-c2cc3c(N4CCOCC4)ncnc3s2)cc1,inconclusive: -0.157%,
N#CC1=C(N)OC2=C(CCc3ccccc32)C1c1ccccc1 (stereo not given),inconclusive: -11.9%,
Cc1ccccc1Cn1c(CN2CCC(C(=O)NCc3cccnc3)CC2)cc2ccccc21,,"inconclusive: 15.8 µM [falling, single point]"
Oc1ccc(-c2nnc(-c3ccccc3)c(-c3ccccc3)n2)cc1,inconclusive: 1.52%,
CCOc1ccc(N2CC(C(=O)Nc3ccc(OC)c(S(=O)(=O)N4CCCCC4)c3)CC2=O)cc1 (stereo not given),inactive,
CN(C)/N=C/c1ccc(OS(=O)(=O)c2ccccc2)cc1,inconclusive: 3.35%,
O=C(O)C1CC(=O)N(CCc2c[nH]c3ccccc23)C1 (stereo not given),inconclusive: 6.61%,
Cn1c(SCC(=O)N2CCOCC2)ncc(C(=O)Nc2ccccc2)c1=O,,"inconclusive: 5.01 µM [falling, full curve, poor fit]"
COc1ccc(Cl)cc1NC(=S)NCCc1c[nH]c2ccccc12,inconclusive: 23.6%,
O=C(Nc1ccc(O)cc1)c1ccccc1OCc1ccccc1,inconclusive: -18.9%,
COc1ccccc1-n1c(CNC(=O)c2ccco2)nnc1SCC(=O)Nc1cc(C)ccc1C,,"inconclusive: 12.6 µM [falling, partial curve]"
CC1=NN(/C(=N\c2nnc(C)s2)Nc2ccccc2)[C@H](c2cccc3ccccc23)S1,inconclusive: -9.17%,
O=C(Cc1ccsc1)N1CCc2c([nH]c3ccccc23)C1c1ccccn1 (stereo not given),inconclusive: -14.9%,
CCc1ccc(NC(=S)NC(=O)c2c(-c3ccccc3Cl)noc2C)cc1,inactive,
O=C(NCCCSc1ccccc1)c1cc(Cl)ccc1O,,"inconclusive: 31.6 µM [falling, partial curve]"
CC(=O)c1ccc(NS(=O)(=O)c2ccc(C)cc2)cc1,,"inconclusive: 2.31 µM [falling, partial curve]"
COc1ccc(/C=C2\SC(=S)N(CCCC(=O)Nc3ccccn3)C2=O)cc1OC,,"inconclusive: 18.4 µM [falling, partial curve]"
CS(=O)(=O)N(CC(=O)Nc1ccccc1Sc1ccccc1)c1ccc(F)cc1,inconclusive: -3.01%,
Cc1occc1C(=O)N1CCCC(N2CCN(c3ccccc3F)CC2)C1 (stereo not given),inactive,

# Part of the list above in order of SMILES length, high to low:
SMILES,"activity change, negative = inhibition",Potency
O=C(COC(=O)c1c(Cl)ccc(Cl)c1Cl)NC(=O)NCc1ccccc1,inconclusive: -17.9%,
COc1ccc([N+](=O)[O-])cc1NC(=O)Cc1ccccc1Cl,inactive,
CC(=O)c1ccc(NS(=O)(=O)c2ccc(C)cc2)cc1,,"inconclusive: 2.31 µM [falling, partial curve]"

# Additional compounds:

SMILES,"activity change, negative = inhibition",Potency
C/C=C/C=C/C(=O)N1CC[C@]23c4ccccc4N[C@H]4N(C)c5cccc6c5[C@]42CCN([C@H]6C2OC2(C)C)[C@H]13 (stereo not given in full),inconclusive: -14.1%,
COc1ccc(N2C3=[N+](CC2(C)O)c2ccccc2CC3)cc1 (stereo not given),inconclusive: 14.3%,
CC(C)(C)c1ccc(OCC(=O)N2CCCCCC2)c(Br)c1,inconclusive: -17.1%,
Cc1cc(C)n(-c2nc3sc4c(c3c(=O)[nH]2)CCCC4)n1,inconclusive: 11%,
CCn1c(/C=C/c2c[nH]c3ccccc23)nc2ccccc2c1=O,,"inconclusive: 0.355 µM [falling, full curve, poor fit]"
O=C(Cn1ncc(Cl)c(Cl)c1=O)N1CCOCC1,inconclusive: 0.04%,
Cn1cnnc1Sc1cc(N2CCN(S(=O)(=O)c3ccc4ccccc4c3)CC2)ccc1[N+](=O)[O-],inconclusive: 8.95%,
O=C(COC(=O)c1ccc(S(=O)(=O)N2CCCCCC2)cc1)NCc1ccc(Cl)cc1,inconclusive: 3.65%,
CC(C)n1c(/C=C/c2ccccc2)nc2ccccc21,inactive,
N#C/C(=N\Nc1cccc(C(F)(F)F)c1)C(=O)c1csc(-c2cccnc2)n1,inconclusive: 0.472%,
c1cnc2ccc(C(c3nnnn3C3CCCCC3)N3CCCCC3)cc2c1 (stereo not given),inactive,
COc1ccc(-c2csc(N(CCCN(C)C)C(=O)c3ccc(C)cc3)n2)cc1,,"inconclusive: 22.4 µM [falling, single point]"
COc1cccc(NC(=O)C2CCCN2C(=O)Nc2ccccc2)c1 (stereo not given),inactive,
CC(=O)O[C@H]1CC[C@H]2[C@@H]3CCc4cc(O)ccc4[C@H]3CC[C@]12C,inconclusive: -6.27%,
COc1cc(CCNc2ccc3nnc(-c4ccccc4)n3n2)cc(OC)c1OC,inactive,
O=C(O)c1ccc(N/N=C/c2ccc(OC(=O)c3ccccc3Cl)cc2)cc1,,"inconclusive: 0.517 µM [falling, partial curve, poor fit]"
O=C(/C=C/c1ccco1)Nc1ccccc1N1CCCCC1,inconclusive: -2.11%,
CC1NC(=O)NC1CCCCCC(=O)Nc1ccc(F)c(Cl)c1 (stereo not given),inactive,
CC1Cc2ccccc2N1C(=O)CN1C(=O)CN(C)C(=O)c2ccccc21 (stereo not given),inactive,
O=c1c2[nH]cnc2n(-c2ccccc2)c(=O)n1Cc1ccccc1,inconclusive: 1.04%,
CC1(C)CC(=O)C2=C(C1)NC(=O)CC2C(=O)NCc1ccc(F)cc1 (stereo not given),inconclusive: -4.85%,
COc1ccc(-c2nc3c(c(SCC(=O)Nc4cccc(O)c4)n2)Cc2c(CO)cnc(C)c2O3)cc1,inconclusive: 3.85%,
CC(Sc1nnc(C(F)(F)F)n1C)C(=O)Nc1ccc(S(N)(=O)=O)cc1 (stereo not given),inconclusive: 7.41%,
O=C(Nc1cc(Cl)ccc1Cl)c1cc(S(=O)(=O)NCCc2ccccc2)ccc1F,inconclusive: 2.6%,
CC1CCCC(NC(=O)c2ccc3c(c2)OCCO3)C1C (stereo not given),,"inconclusive: 16.4 µM [falling, partial curve]"
Cc1cc(-c2ccccc2)n(-c2cc(N/N=C/c3ccccc3O)ncn2)n1,,active: 14.6 µM
